Source: PubChem BioAssay AID445 (National Center for Advancing Translational Sciences (NCATS), 2006)
Some of the results follow. Shown are side measurements of this screen, not its main read-out; they come without a call. The list favours compounds with an active or inconclusive main result. Potencies come from curve fits of mixed quality, noted in brackets.

Experiment: IkB Signaling
Conditions: ABC-DLBCL IkBa-CBG/CBR dual luciferase ratio (green luciferase fused to IkBa over red control in OCI-Ly3 lymphoma cells), 4 h; measured here: control luc red channel unless noted
How it was run: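 In this assay, an IκBα–CBG68 fusion accumulates when IKK-driven degradation is blocked; native CBR normalizes for cell number. OCI-Ly3 cells were treated 4 h with compound and doxycycline, then green and red light read after Chroma-Glo addition.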

SMILES	AC50
COc1ccc(CNC(=O)C2CCCN(S(=O)(=O)c3ccc4c(ccn4C)c3)C2)c(OC)c1 (stereo not given)	20 µM [falling, partial curve]
Cc1ccc(-n2ncc(C(=O)NCCN3CCc4ccccc4C3)c2C2CCN(C(=O)OC(C)(C)C)CC2)cc1C	25.1 µM [falling, partial curve]
COc1ccc(-c2nc(SCC(=O)NC(C)CCc3ccccc3)n[nH]2)cc1 (stereo not given)	31.6 µM [falling, partial curve]
CCOC(=O)c1c(C)oc2nc(C)nc(NCCc3ccc(OCC)c(OCC)c3)c12	31.6 µM [falling, partial curve, poor fit]
COc1ccc(N2CCN(c3ncnc4c3cnn4-c3ccc(F)cc3)CC2)cc1	3.16 µM [falling, partial curve]
COC(=O)c1ccc(NC(=O)CSc2cn(CC(=O)N3CCCCC3)c3ccccc23)cc1	31.6 µM [falling, single point]
COc1ccc(CNS(=O)(=O)c2cc3c(cc2Cl)N(C(C)=O)CCO3)cc1	25.1 µM [falling, single point]
CC1CCN(C(c2ccccc2)c2sc3nc(-c4ccco4)nn3c2O)CC1 (stereo not given)	6.31 µM [rising, single point]
Cc1ccc(Nc2cc(C(=O)NCCc3ccccc3)c3ccccc3n2)c(C)c1	1.26 µM [falling, single point]
COc1ccc(NC(=O)CSc2nc(-c3cc(OC)c(OC)c(OC)c3)[nH]c2-c2ccc(F)cc2)cc1	10 µM [falling, partial curve]
Cc1ccccc1Cn1c(COc2ccc(Cl)cc2)nc2ccccc21	31.6 µM [falling, single point]
COc1ccc(CNC(=O)C2CCN(c3nnc(-n4c(C)ccc4C)s3)CC2)c(OC)c1	10 µM [falling, partial curve]
O=C(Nc1cccc(F)c1)C1CCCN(S(=O)(=O)c2cccc3cccnc23)C1 (stereo not given)	10 µM [falling, partial curve]
CCCCN(C)CCCNC(=O)C1CCN(S(=O)(=O)CCC)CC1	15.8 µM [falling, partial curve, poor fit]
COCCNc1nc2c(c(=O)n(C)c(=O)n2C)n1Cc1c(F)cccc1Cl	25.1 µM [falling, single point]
Cc1oc(-c2cccc(Cl)c2)nc1CN1CCC(C(=O)NC(C)c2ccccc2)CC1 (stereo not given)	12.6 µM [falling, partial curve]
COc1ccc(Cl)cc1NC(=O)CSc1cn(CC(=O)N2CCCCC2)c2ccccc12	7.94 µM [falling, partial curve]
CCOCCc1nn2c(=O)cc(COC(=O)c3ccc(NC(=O)C4CCCCC4)cc3)nc2s1	31.6 µM [falling, single point]
COc1ccccc1CNc1nc2ccc(C)cc2n2nnnc12	10 µM [falling, partial curve]
Cc1nn(-c2ccccc2)c(OC(=O)c2ccccc2Br)c1S(=O)(=O)c1ccccc1	25.1 µM [falling, single point]
O=C(CS(=O)(=O)c1cccc2nsnc12)N1CCN(c2ccccc2F)CC1	39.8 µM [rising, partial curve]
O=C1CC(c2c(Cl)cccc2Cl)c2c(ccc3ccccc23)N1 (stereo not given)	39.8 µM [falling, single point]
CCOc1ccc(NC(=O)N2CC3CCCN3c3ccccc32)cc1 (stereo not given)	39.8 µM [falling, single point]
CC(=O)NNc1ncnc2c1cnn2-c1ccccc1	1.58 µM [falling, full curve]
COC(=O)c1ccc(CCc2cc(O)ccc2O)cc1	3.98 µM [rising, partial curve] [measured here: IkB-luc green channel]
Cc1nn(-c2ccccc2)c(C)c1C(=O)Nc1nnc(-c2ccco2)o1	39.8 µM [rising, single point] [measured here: IkB-luc green channel]
COC(=O)c1cnc(N2CCN(c3ccc(OC)cc3)CC2)c2ccccc12	39.8 µM [falling, single point]
Cc1ccccc1NS(=O)(=O)c1ccc2[nH]cc(C(=O)NCCc3ccccc3)c(=O)c2c1	20 µM [falling, single point]
Cc1cccc(-c2nc(CN3CCCC(C(=O)NC4CCCC4)C3)c(C)o2)c1 (stereo not given)	25.1 µM [falling, partial curve]
Cc1cccc2sc(NC(=O)CCNS(=O)(=O)c3cccc4nonc34)nc12	10 µM [falling, partial curve]

Two records picked at random from the list so far, as already listed:
SMILES	AC50
CC1CCN(C(c2ccccc2)c2sc3nc(-c4ccco4)nn3c2O)CC1 (stereo not given)	6.31 µM [rising, single point]
O=C(CS(=O)(=O)c1cccc2nsnc12)N1CCN(c2ccccc2F)CC1	39.8 µM [rising, partial curve]
